Experimental data: PMC11312940
Results are given in words; binding and its absence hold for the method and conditions named. In cells and extracts the contact can be indirect. Here binding means that the protein was enriched with, or labelled near, the bait; the list need not be complete.

Protein sequences, listed by entry. Tags and fused reporters are not part of them.
UniProt Q9GZV5: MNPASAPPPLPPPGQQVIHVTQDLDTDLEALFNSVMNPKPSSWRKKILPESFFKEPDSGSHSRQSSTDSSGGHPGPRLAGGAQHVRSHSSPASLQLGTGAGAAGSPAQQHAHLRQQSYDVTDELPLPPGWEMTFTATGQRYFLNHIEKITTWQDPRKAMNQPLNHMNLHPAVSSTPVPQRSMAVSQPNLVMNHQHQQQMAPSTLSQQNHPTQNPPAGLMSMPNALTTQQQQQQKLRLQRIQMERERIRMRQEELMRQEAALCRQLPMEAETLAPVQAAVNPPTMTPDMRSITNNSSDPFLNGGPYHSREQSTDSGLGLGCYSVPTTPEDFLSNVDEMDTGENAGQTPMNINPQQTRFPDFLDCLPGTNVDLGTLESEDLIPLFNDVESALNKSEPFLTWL
UniProt P46937: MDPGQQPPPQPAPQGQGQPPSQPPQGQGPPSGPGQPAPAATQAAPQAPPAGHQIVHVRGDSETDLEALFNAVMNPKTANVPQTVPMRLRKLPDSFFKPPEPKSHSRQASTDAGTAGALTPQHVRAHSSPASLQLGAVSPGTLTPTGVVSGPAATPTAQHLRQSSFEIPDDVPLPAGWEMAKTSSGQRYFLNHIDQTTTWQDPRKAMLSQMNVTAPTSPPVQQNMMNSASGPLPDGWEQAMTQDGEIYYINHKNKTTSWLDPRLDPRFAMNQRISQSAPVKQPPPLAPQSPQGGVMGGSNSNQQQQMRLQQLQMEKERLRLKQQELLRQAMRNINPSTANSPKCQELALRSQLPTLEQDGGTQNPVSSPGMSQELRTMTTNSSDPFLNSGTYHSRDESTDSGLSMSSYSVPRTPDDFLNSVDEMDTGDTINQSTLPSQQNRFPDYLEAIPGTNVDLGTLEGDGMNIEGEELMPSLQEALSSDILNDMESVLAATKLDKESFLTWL
UniProt P46108: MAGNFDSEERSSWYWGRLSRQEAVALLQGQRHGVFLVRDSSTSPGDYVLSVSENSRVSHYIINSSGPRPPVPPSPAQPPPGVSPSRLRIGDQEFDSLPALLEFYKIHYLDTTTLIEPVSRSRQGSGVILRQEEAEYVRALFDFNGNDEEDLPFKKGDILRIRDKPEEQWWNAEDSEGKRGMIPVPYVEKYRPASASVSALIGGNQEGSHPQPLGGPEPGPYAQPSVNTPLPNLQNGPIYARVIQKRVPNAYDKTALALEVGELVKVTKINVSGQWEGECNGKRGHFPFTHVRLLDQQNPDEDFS
UniProt P46109: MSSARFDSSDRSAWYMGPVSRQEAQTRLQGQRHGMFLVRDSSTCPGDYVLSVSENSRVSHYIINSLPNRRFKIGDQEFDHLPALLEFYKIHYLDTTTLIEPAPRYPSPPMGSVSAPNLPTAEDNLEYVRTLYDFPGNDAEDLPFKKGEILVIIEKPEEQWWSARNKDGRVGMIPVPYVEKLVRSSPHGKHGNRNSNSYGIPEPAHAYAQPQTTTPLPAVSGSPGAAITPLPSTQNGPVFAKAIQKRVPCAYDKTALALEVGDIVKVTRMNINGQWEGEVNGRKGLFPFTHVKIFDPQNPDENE
UniProt Q70E73: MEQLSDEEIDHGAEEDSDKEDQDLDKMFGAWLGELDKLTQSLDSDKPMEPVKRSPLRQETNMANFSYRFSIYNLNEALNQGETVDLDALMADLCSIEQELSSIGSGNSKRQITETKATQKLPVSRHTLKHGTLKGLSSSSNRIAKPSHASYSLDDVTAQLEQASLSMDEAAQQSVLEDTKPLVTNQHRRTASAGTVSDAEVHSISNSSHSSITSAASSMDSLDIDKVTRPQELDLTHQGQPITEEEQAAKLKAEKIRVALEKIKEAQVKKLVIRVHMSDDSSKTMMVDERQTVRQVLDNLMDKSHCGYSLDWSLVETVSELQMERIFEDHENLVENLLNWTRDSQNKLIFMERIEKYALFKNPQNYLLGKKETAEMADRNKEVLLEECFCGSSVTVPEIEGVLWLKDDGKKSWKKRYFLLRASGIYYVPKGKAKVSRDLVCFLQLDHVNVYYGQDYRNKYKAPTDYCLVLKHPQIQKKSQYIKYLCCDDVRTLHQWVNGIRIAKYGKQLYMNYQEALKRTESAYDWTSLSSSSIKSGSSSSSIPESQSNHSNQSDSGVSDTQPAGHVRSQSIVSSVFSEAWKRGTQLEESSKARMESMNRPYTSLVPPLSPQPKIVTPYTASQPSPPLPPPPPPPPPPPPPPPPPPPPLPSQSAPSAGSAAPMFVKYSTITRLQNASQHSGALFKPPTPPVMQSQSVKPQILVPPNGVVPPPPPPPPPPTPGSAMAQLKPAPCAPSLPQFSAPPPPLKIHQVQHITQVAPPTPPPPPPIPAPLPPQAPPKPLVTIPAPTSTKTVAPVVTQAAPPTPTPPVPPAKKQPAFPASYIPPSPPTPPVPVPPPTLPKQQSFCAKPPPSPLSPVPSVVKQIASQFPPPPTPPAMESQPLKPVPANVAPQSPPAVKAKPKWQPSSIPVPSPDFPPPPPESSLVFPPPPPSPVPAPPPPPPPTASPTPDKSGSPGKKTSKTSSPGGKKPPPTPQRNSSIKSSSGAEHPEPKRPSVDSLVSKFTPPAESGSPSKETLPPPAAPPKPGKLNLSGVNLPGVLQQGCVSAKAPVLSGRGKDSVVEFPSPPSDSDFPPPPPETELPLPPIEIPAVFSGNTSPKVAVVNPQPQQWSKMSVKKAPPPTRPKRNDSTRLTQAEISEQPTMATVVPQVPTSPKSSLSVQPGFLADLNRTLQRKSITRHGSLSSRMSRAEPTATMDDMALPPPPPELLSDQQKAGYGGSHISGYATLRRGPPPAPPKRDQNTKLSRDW
UniProt P50552: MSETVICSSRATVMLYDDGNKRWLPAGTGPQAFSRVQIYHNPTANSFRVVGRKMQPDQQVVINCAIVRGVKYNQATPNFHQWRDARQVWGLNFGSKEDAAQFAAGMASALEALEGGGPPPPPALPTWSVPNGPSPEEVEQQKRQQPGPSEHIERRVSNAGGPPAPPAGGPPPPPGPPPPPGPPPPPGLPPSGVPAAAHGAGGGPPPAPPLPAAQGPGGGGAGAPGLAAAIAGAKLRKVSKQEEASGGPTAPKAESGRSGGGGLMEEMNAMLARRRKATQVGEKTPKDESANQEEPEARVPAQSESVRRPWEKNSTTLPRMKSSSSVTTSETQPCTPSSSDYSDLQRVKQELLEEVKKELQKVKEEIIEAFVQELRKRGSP
UniProt Q9Y2J4: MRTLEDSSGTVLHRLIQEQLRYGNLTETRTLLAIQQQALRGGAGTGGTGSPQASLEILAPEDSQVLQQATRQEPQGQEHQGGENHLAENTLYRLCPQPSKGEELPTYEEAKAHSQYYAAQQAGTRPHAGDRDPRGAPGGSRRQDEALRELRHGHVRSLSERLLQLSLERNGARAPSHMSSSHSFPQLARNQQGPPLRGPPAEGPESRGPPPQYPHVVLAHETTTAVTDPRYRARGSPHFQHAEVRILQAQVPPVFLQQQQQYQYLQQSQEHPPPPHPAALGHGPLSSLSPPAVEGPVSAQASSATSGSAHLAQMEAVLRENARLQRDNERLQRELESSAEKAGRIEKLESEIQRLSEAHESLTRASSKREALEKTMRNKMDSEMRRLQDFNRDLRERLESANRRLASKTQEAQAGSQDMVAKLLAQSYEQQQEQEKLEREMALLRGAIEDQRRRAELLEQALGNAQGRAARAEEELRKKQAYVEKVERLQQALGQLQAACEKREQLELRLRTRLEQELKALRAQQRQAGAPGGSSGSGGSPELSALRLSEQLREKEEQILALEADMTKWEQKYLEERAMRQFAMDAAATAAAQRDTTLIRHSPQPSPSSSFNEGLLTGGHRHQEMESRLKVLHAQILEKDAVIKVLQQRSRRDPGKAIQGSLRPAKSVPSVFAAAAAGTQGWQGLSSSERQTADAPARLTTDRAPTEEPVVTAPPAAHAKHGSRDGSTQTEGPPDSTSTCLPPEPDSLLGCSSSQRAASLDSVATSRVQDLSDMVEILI
UniProt P35240: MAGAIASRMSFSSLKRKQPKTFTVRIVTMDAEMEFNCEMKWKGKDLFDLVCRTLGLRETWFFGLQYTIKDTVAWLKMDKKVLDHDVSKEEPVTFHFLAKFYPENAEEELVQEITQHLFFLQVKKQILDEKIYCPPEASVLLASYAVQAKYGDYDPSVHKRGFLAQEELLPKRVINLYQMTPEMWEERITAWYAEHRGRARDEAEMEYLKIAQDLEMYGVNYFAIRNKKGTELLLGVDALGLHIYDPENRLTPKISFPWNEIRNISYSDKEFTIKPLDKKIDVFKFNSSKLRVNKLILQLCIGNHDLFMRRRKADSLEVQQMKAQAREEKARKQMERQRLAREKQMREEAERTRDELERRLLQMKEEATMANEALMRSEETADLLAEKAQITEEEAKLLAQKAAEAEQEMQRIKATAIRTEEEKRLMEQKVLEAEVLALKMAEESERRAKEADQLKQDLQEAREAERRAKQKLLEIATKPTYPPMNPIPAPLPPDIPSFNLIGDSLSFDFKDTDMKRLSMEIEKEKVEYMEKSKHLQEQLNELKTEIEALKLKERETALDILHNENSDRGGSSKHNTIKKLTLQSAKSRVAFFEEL

Columns and labels:
[1] = molecular target: BirA-tagged TAZ (WW-domain containing transcription regulator 1, WWTR1), N-terminal fusion with the biotin ligase BirA and a Flag-tag (UniProt Q9GZV5); experiment: proximity labelling; BioID: BirA-Flag-YAP or -TAZ induced with doxycycline 24 h in stable HLF cells, 50 µM biotin 24 h; streptavidin magnetic beads; LC-MS/MS of four replicates; hits against the BirA-only control (fold change ≥ 2; false discovery rate ≤ 0.05)
[2] = molecular target: BirA-tagged YAP (yes-associated protein), N-terminal fusion with the biotin ligase BirA and a Flag-tag (UniProt P46937); experiment: as above

With “CRK (CT10 Regulator of Kinase) (from UniProt P46108 1-304)” as the substance, how does the binding [1] read?
The binding was “binds”.

And the binding [2]?
Its binding is “binds”.

How did the binding [2] turn out when “CRK-like proto-oncogene adaptor protein (CRKL) (from UniProt P46109 1-303)” was run?
Its binding is “binds”.

Which results are given for “RAPH1 (Ras Association and Pleckstrin Homology domains 1) (from UniProt Q70E73 1-1250)”?
binding [1]: binds; binding [2]: binds

Which binding [1] does the source give for “VASP (Vasodilator-stimulated phosphoprotein) (from UniProt P50552 1-380)” here?
The binding was “binds”.

What about the binding [2] of the same substance?
Its binding is “binds”.

Which binding [1] does the source give for “angiomotin-like 2 (AMOTL2) (from UniProt Q9Y2J4 1-779)” here?
Its binding is “binds”.

And the binding [2]?
Its binding is “binds”.

For “neurofibromin-2 (NF2) (from UniProt P35240 1-595)”, which binding [1] is on record?
Its binding is “binds”.
